Results from one PubChem assay

From PubChem BioAssay record AID1159506 (NCATS, 2015).

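Luminescence from an EWS-FLI1 target-promoter (NR0B1) reporter, set against a CMV-promoter reporter, two days after silencing single genes in TC32 Ewing sarcoma cells. Each siRNA was applied at 20 nM. A z-score of the log NR0B1-over-CMV signal, less the median of siRNAs with the same seed; more negative means a stronger specific loss of the NR0B1 reporter.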

This is part of the screen; most of the strongest results are not listed here. Sequences are the guide (antisense) strand, without overhang.

Result for UCAGUAUCCACUGCUCCUU against MST1 was seed-corrected z-score -0.4235. For UUGCAGGUCACAUUCUUGC against PVR the result was seed-corrected z-score -0.1506. For UUAAGAUGCGGCUUGAACC against OBSL1 the result was seed-corrected z-score -0.4853. With UAAGUCUCUGCCGUUGACC against PDZRN3 the assay gave seed-corrected z-score 0.6304.

With UACGUUUCAGAGGAGAUGG against RREB1 the assay gave seed-corrected z-score -0.5551. Result for UUCGAAUUUCCUGCAAGGC against LATS1 was seed-corrected z-score 0.0684. For AGUAAUACAACCAAUGUUC against SFMBT1 the result was seed-corrected z-score -0.6295. For ACCGUGAUAAGAGUCUAUC against SLMAP the result was seed-corrected z-score 0.2555.

UCCGAAUACAAUUUUAACC against SHCBP1 gave seed-corrected z-score 0.5419. UUAAUUGGGAUCGUAGGAC against CR1 gave seed-corrected z-score 1.475. For UAGGUAGCGACUCUCCUCC against CREBZF the result was seed-corrected z-score -0.554. UCAUUCACGUACACUAUCC against CPE read seed-corrected z-score -0.958.

UGUUGAAUAACCAAGAUCC against OR8K3 read seed-corrected z-score 0.351. With AAAGGGUACAUUUAUACGG against ZNF263 the assay gave seed-corrected z-score -0.7842. UAAUCGUCUUCUCUUCAGC against SPIDR read seed-corrected z-score -0.1684. With UGUGCUUAUCUGGUGGUGG against LOC643675 the assay gave seed-corrected z-score -1.578.

UUCAGCAUAAUCGAUGCCC against GNAT2 read seed-corrected z-score -1.298. For UUCUUGACCAUAAGGCCCU against PRKAB2 the result was seed-corrected z-score -0.2763. With UUGUGCACCACGGCGAACU against NAT8L the assay gave seed-corrected z-score -0.9226. UUUCUCAUCAUUCACUUCC against ESX1 gave seed-corrected z-score 0.1062.

Result for UUUGUCAAUAUCGUCUGCG against APOL6 was seed-corrected z-score -0.7757. With UGUGGUUCAGGUCUGGACU against ULBP1 the assay gave seed-corrected z-score -0.8917. For UGUCUUAUUCUGCUUGUGG against LOC728660 the result was seed-corrected z-score -0.2033. For UUGUGAAUCAGGUCGAUGC against AP3B2 the result was seed-corrected z-score -0.7714.

UUCCCGAUCAGAAAUGAGG against RNF220 gave seed-corrected z-score 0.2382. Result for UAGGCAAGUCGAUUGAUCC against DESI2 was seed-corrected z-score 0.6498. UGGAGUAACAGGUGGGAUU against ARRDC4 read seed-corrected z-score -0.1391. Result for UAUGGUAGACCUCUGCACC against ENO2 was seed-corrected z-score -1.154.

With UUGUUGGUUAGGUGUAAUG against GCNT3 the assay gave seed-corrected z-score -1.081. With UGAUUAGUGAUUACCACUG against RAD51 the assay gave seed-corrected z-score 0.263. AUCUUUAGAGUCUUUAGCC against TRY2P gave seed-corrected z-score -0.4805. UUCCAUAUAAUCCCUUAAC against LDHC gave seed-corrected z-score -0.5773.

With UGAGUGAUGAGGCUCAAGG against SMPD4 the assay gave seed-corrected z-score -0.5675. Result for UCCUGUUCAAGUAAAGGGC against C19orf66 was seed-corrected z-score -0.6083.

Some entries from above, unchanged:

siRNA,target gene,seed-corrected z-score
UCAGUAUCCACUGCUCCUU,MST1,-0.4235
UUGUUGGUUAGGUGUAAUG,GCNT3,-1.081